The target of experiment [1] is T1, Caveolin-1 (endogenous in B16.F10 mouse melanoma cells) (mouse (endogenous in B16.F10)) (UniProt P49817).
T1 sequence: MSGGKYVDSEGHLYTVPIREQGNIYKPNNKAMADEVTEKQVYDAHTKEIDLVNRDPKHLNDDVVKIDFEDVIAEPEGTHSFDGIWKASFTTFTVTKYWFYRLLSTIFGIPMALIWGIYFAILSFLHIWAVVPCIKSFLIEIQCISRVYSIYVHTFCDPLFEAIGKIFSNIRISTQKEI
Nature of the experiment: co-IP.

In experiment [2] the target is T2, Podoplanin (endogenous in B16.F10 mouse melanoma cells) (mouse (endogenous in B16.F10)) (UniProt Q62011).
T2 sequence: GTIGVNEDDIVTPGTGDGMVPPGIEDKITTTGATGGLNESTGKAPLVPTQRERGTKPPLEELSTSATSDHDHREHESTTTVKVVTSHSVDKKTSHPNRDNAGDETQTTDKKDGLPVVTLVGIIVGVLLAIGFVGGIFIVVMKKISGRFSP
Nature of the experiment: co-IP.

Results are given in words; binding and its absence hold for the method and conditions named. In cells and extracts the contact can be indirect. Some results given as binding are weak or reduced against the parent protein; the word gives no strength.

B1: Podoplanin (endogenous in B16.F10 mouse melanoma cells) (protein, UniProt Q62011 23-172)
chain: T2 sequence
For B1, in experiment [1], the binding result was “binds”.

B2: Caveolin-1 (endogenous in B16.F10 mouse melanoma cells) (protein, UniProt P49817 1-178)
chain: T1 sequence
Consider B2, for which the binding result in experiment [2] is on record as “binds”.

The record behind these values is article doi:10.1101/488304.
